Measurements as given in PubChem BioAssay AID328 (DTP/NCI, 2004).
The list does not hold the whole screen: it gathers some chemical classes. Other doses and runs of a compound may be missing. T/C: endpoint of the treated group in % of that of the vehicle group. Some doses have a count of surviving animals in place of a T/C: the source files T/C as zero there, which appears to mark a toxic dose or a test without result, not a measured value. Some survivor counts are full or nearly so, which does not show that the dose was tolerated: survival well below the control is almost never listed, so the zero probably covers shortened survival too. Counts of survivors are from the toxicity check (mostly the fifth day) where no day follows; animals may have died later. Schedule codes are those of the source, taken here to give the interval after Q, in days (D) or hours (H), and the number of doses after X. Where survival is the endpoint, the PubChem record calls one and a half times the control and up active, and a quarter to a half above the control has no call in these data; cut-offs in other NCI protocols can differ. Marks such as (2×) say how often a value occurs here. Some T/C values are followed by the survivors on the day toxicity was checked, most often the fifth; where neither a count nor a note follows, no animal had died by that day. Some doses were run more than once; the values are given in rising order. Some T/C values are marked as having no survivor count here; that says nothing about deaths at the dose.

Tested on: BDF1 mice, P388 leukemia ip, median survival T/C
Assay: NCI In Vivo Anticancer Drug Screen. Data for tumor model P388 Leukemia (intraperitoneal) in B6D2F1 (BDF1) mice
Details: T/C endpoint: median survival time, higher T/C = longer survival
Method in brief: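 In tumour-bearing mice, survival after compound treatment is set against the vehicle group and given as a quotient.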

[1] = dose: 50.0 mg/kg/injection, schedule: Q04DX003 (ip), vehicle: Klucel (hydroxypropylcellulose) (HPC)
[2] = dose: 75.0 mg/kg/injection, schedule: Q04DX003 (ip), vehicle: Klucel (hydroxypropylcellulose) (HPC)
[3] = dose: 6.25 mg/kg/injection, schedule: Q01DX009 (ip), vehicle: saline
[4] = dose: 12.5 mg/kg/injection, schedule: Q01DX009 (ip), vehicle: saline
[5] = dose: 25.0 mg/kg/injection, schedule: Q01DX009 (ip), vehicle: saline

For `Cc1cc(N(CCCl)CCCl)c2ccccc2c1`, the T/C (dose: 3.1 mg/kg/injection, schedule: Q04DX003 (ip), vehicle: Klucel (hydroxypropylcellulose) (HPC)) was 100 % of control, the T/C (dose: 3.5 mg/kg/injection, schedule: Q01DX009 (ip), vehicle: Klucel (hydroxypropylcellulose) (HPC)) was 95 % of control and the T/C (dose: 4.7 mg/kg/injection, schedule: Q04DX003 (ip), vehicle: Klucel (hydroxypropylcellulose) (HPC)) was 140 % of control. The T/C (dose: 7.0 mg/kg/injection, schedule: Q01DX009 (ip), vehicle: Klucel (hydroxypropylcellulose) (HPC)) was 95 % of control, the T/C (dose: 7.2 mg/kg/injection, schedule: Q04DX003 (ip), vehicle: Klucel (hydroxypropylcellulose) (HPC)) was 145 % of control and the T/C (dose: 9.2 mg/kg/injection, schedule: Q01DX009 (ip), vehicle: Klucel (hydroxypropylcellulose) (HPC)) was 177 % of control (2×). The T/C (dose: 10.0 mg/kg/injection, schedule: Q04DX003 (ip), vehicle: Klucel (hydroxypropylcellulose) (HPC)) was 140 % of control, the T/C (dose: 14.0 mg/kg/injection, schedule: Q01DX009 (ip), vehicle: Klucel (hydroxypropylcellulose) (HPC)) was 186, 200, 218 % of control [5 of 6 alive] and the T/C (dose: 16.5 mg/kg/injection, schedule: Q04DX003 (ip), vehicle: Klucel (hydroxypropylcellulose) (HPC)) was 159 % of control. For the same compound, the T/C (dose: 21.0 mg/kg/injection, schedule: Q01DX009 (ip), vehicle: Klucel (hydroxypropylcellulose) (HPC)) was 127 and 227 % of control, the T/C (dose: 24.75 mg/kg/injection, schedule: Q04DX003 (ip), vehicle: Klucel (hydroxypropylcellulose) (HPC)) was 100 % of control and the T/C (dose: 28.12 mg/kg/injection, schedule: Q01DX009 (ip), vehicle: Klucel (hydroxypropylcellulose) (HPC)) was 91 % of control. The T/C (dose: 49.5 mg/kg/injection, schedule: Q04DX003 (ip), vehicle: Klucel (hydroxypropylcellulose) (HPC)) was 95 % of control, the T/C [1] was 209 % of control and the survivor count (dose: 56.25 mg/kg/injection, schedule: Q01DX009 (ip), vehicle: Klucel (hydroxypropylcellulose) (HPC)) was 6 of 6. The T/C [2] was 95 % of control, the survivor count [2] was 5 of 6 and the survivor count (dose: 112.5 mg/kg/injection, schedule: Q01DX009 (ip), vehicle: Klucel (hydroxypropylcellulose) (HPC)) was 5 of 6. The T/C (dose: 112.5 mg/kg/injection, schedule: Q04DX003 (ip), vehicle: Klucel (hydroxypropylcellulose) (HPC)) was 100 [5 of 6 alive] and 242 % of control.

`Cc1cc(Cl)ccc1Nc1c([N+](=O)[O-])cc([N+](=O)[O-])cc1[N+](=O)[O-]` was tested, and the T/C (dose: 50.0 mg/kg/injection, schedule: Q01DX001 (ip), vehicle: Klucel (hydroxypropylcellulose) (HPC)) was 105 % of control [survivor count not shown], the T/C (dose: 100.0 mg/kg/injection, schedule: Q01DX001 (ip), vehicle: Klucel (hydroxypropylcellulose) (HPC)) was 105 % of control [survivor count not shown] and the T/C (dose: 200.0 mg/kg/injection, schedule: Q01DX001 (ip), vehicle: Klucel (hydroxypropylcellulose) (HPC)) was 100 % of control [survivor count not shown].

`CCN(CCCl)CC1OC(O)C(O)C1O` (stereo unspecified) was tested, and the T/C (dose: 0.26 mg/kg/injection, schedule: Q04DX003 (ip), vehicle: saline) was 129 % of control, the T/C (dose: 0.4 mg/kg/injection, schedule: Q04DX003 (ip), vehicle: saline) was 141 % of control and the T/C (dose: 0.6 mg/kg/injection, schedule: Q04DX003 (ip), vehicle: saline) was 145 and 150 % of control. The T/C (dose: 0.9 mg/kg/injection, schedule: Q04DX003 (ip), vehicle: saline) was 162 % of control, the T/C (dose: 1.3 mg/kg/injection, schedule: Q04DX003 (ip), vehicle: saline) was 175 % of control and the T/C (dose: 2.6 mg/kg/injection, schedule: Q01DX009 (ip), vehicle: saline) was 236 % of control. The T/C (dose: 3.0 mg/kg/injection, schedule: Q04DX003 (ip), vehicle: saline) was 162 % of control, the T/C (dose: 4.0 mg/kg/injection, schedule: Q01DX009 (ip), vehicle: saline) was 218 % of control and the T/C (dose: 5.0 mg/kg/injection, schedule: Q04DX003 (ip), vehicle: saline) was 170 % of control. The T/C (dose: 6.0 mg/kg/injection, schedule: Q01DX009 (ip), vehicle: saline) was 240 % of control, the T/C [3] was 216 % of control and the T/C (dose: 8.0 mg/kg/injection, schedule: Q04DX003 (ip), vehicle: saline) was 168 and 204 % of control. The T/C (dose: 9.0 mg/kg/injection, schedule: Q01DX009 (ip), vehicle: saline) was 150 % of control, the T/C (dose: 12.0 mg/kg/injection, schedule: Q04DX003 (ip), vehicle: saline) was 204 % of control and the survivor count [4] was 6 of 6. For the same compound, the T/C (dose: 12.5 mg/kg/injection, schedule: Q04DX003 (ip), vehicle: saline) was 225 % of control, the T/C (dose: 18.0 mg/kg/injection, schedule: Q04DX003 (ip), vehicle: saline) was 131 % of control and the survivor count [5] was 5 of 6. The T/C (dose: 25.0 mg/kg/injection, schedule: Q04DX003 (ip), vehicle: saline) was 120 % of control, the survivor count (dose: 50.0 mg/kg/injection, schedule: Q04DX003 (ip), vehicle: saline) was 6 of 6 and the survivor count (dose: 100.0 mg/kg/injection, schedule: Q04DX003 (ip), vehicle: saline) was 6 of 6. The survivor count (dose: 200.0 mg/kg/injection, schedule: Q04DX003 (ip), vehicle: saline) was 0 of 6 and the survivor count (dose: 400.0 mg/kg/injection, schedule: Q04DX003 (ip), vehicle: saline) was 0 of 6.

For `O=[N+]([O-])c1cc([N+](=O)[O-])c(NNc2ccccc2)c([N+](=O)[O-])c1`, the T/C (dose: 12.5 mg/kg/injection, schedule: Q04DX003 (ip), vehicle: Klucel (hydroxypropylcellulose) (HPC)) was 109 [survivor count not shown] and 118 % of control [survivor count not shown], the T/C (dose: 12.5 mg/kg/injection, schedule: Q04DX003 (ip), vehicle: saline with Tween-80) was 113 % of control [survivor count not shown] and the T/C (dose: 25.0 mg/kg/injection, schedule: Q04DX003 (ip), vehicle: Klucel (hydroxypropylcellulose) (HPC)) was 118 % of control [survivor count not shown]. The T/C (dose: 25.0 mg/kg/injection, schedule: Q04DX003 (ip), vehicle: saline with Tween-80) was 121 % of control [survivor count not shown], the T/C [1] was 127 [survivor count not shown] and 131 % of control [survivor count not shown] and the T/C (dose: 50.0 mg/kg/injection, schedule: Q04DX003 (ip), vehicle: saline with Tween-80) was 130 % of control [survivor count not shown].

For `CN(CCCl)CCCCCCCl`, the T/C (dose: 2.5 mg/kg/injection, schedule: Q01DX009 (ip), vehicle: saline) was 150 % of control, the T/C (dose: 5.0 mg/kg/injection, schedule: Q01DX009 (ip), vehicle: saline) was 165 % of control and the T/C (dose: 10.0 mg/kg/injection, schedule: Q01DX009 (ip), vehicle: saline) was 217 % of control. For the same compound, the T/C (dose: 20.0 mg/kg/injection, schedule: Q01DX009 (ip), vehicle: saline) was 220 % of control.

`CC1(C)CN1P(=O)(Nc1ccccn1)N1CC1(C)C` (stereo unspecified) was tested, and the T/C (dose: 100.0 mg/kg/injection, schedule: Q01DX009 (ip), vehicle: saline sonified) was 125 % of control, the T/C (dose: 100.0 mg/kg/injection, schedule: Q04DX003 (ip), vehicle: saline sonified) was 108 % of control and the T/C (dose: 176.0 mg/kg/injection, schedule: Q04DX003 (ip), vehicle: saline sonified) was 127 % of control. The T/C (dose: 200.0 mg/kg/injection, schedule: Q01DX009 (ip), vehicle: saline sonified) was 155 % of control, the T/C (dose: 200.0 mg/kg/injection, schedule: Q04DX003 (ip), vehicle: saline sonified) was 104 % of control and the T/C (dose: 264.0 mg/kg/injection, schedule: Q04DX003 (ip), vehicle: saline sonified) was 122 % of control. The T/C (dose: 400.0 mg/kg/injection, schedule: Q01DX009 (ip), vehicle: saline sonified) was 175 % of control and the T/C (dose: 400.0 mg/kg/injection, schedule: Q04DX003 (ip), vehicle: saline sonified) was 138 [5 of 6 alive] and 170 % of control [5 of 6 alive].

With `O=[N+]([O-])N1CN([N+](=O)[O-])CN([N+](=O)[O-])C1` the T/C [3] was 96 % of control, the T/C [4] was 99 % of control and the survivor count [5] was 2 of 6.
